{
  "sequences": {"note": "Protein sequences, listed by entry. Tags and fused reporters are not part of them. Lines headed by an entry give the natural chain unless they say otherwise; changes in a name come on top.", "UniProt O60880": "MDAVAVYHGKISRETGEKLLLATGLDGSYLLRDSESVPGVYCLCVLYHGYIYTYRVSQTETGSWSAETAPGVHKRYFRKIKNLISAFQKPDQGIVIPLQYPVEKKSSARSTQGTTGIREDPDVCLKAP", "UniProt P31040": "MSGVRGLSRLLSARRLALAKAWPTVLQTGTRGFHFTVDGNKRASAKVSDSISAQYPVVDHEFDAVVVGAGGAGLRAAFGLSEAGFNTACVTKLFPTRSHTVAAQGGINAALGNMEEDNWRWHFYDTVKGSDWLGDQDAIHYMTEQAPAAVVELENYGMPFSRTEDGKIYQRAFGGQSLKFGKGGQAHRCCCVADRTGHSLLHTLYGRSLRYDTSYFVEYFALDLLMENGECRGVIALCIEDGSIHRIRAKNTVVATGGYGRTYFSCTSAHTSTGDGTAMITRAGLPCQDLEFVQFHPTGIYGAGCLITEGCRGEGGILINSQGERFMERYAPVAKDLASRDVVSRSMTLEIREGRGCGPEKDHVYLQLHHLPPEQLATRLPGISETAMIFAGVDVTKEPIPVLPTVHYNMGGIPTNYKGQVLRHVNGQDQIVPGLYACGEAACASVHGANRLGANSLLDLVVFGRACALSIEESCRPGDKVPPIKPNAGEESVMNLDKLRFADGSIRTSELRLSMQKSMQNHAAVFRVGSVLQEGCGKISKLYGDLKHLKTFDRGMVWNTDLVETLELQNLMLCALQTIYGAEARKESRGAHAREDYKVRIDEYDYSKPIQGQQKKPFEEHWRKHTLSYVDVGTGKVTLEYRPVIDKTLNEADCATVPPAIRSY", "UniProt P46063": "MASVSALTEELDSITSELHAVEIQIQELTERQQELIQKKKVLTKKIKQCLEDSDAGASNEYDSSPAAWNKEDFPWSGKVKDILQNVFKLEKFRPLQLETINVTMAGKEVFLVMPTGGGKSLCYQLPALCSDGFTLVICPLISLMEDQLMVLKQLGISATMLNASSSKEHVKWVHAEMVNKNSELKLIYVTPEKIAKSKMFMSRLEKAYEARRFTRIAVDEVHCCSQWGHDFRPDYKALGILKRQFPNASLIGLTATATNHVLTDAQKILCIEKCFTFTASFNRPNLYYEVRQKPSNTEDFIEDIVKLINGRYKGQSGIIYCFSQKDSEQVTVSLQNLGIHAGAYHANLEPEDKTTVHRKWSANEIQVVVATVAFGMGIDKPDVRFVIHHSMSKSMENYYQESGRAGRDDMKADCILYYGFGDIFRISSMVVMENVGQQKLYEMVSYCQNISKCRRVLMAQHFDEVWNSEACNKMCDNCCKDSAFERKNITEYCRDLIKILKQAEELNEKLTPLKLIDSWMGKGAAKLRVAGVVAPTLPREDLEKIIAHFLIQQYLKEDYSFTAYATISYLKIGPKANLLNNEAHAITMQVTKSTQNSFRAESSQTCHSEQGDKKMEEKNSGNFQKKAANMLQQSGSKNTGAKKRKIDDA", "UniProt Q5VZM2, whole entry": "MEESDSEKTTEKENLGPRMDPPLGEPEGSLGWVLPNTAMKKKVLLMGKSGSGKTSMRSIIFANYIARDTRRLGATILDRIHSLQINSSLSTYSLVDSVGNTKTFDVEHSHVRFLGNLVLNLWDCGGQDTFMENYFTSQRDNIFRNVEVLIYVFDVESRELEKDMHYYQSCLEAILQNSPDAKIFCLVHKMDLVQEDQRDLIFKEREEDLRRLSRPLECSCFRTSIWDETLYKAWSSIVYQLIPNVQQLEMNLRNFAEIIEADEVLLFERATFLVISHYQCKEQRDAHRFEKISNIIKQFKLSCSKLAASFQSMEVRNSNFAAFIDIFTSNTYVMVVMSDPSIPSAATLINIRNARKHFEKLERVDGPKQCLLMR", "UniProt Q53H47": "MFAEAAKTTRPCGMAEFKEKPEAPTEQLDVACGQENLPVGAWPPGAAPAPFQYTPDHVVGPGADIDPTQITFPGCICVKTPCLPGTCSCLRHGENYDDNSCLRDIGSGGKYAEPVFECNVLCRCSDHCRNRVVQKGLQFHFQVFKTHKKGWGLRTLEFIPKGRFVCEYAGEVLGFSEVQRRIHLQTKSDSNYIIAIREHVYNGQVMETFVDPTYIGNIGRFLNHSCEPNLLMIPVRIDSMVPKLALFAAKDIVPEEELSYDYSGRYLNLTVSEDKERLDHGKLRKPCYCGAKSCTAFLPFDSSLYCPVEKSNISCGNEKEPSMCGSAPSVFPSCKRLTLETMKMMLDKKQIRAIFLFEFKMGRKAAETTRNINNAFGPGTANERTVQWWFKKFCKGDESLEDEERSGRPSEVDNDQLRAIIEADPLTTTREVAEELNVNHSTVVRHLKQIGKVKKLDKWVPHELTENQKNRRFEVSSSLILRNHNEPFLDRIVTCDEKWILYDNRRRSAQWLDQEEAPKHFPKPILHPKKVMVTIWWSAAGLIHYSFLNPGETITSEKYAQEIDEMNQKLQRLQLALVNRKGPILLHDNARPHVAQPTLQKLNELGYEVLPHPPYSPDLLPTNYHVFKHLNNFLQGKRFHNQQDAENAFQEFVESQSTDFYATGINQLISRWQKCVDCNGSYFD", "UniProt P49903": "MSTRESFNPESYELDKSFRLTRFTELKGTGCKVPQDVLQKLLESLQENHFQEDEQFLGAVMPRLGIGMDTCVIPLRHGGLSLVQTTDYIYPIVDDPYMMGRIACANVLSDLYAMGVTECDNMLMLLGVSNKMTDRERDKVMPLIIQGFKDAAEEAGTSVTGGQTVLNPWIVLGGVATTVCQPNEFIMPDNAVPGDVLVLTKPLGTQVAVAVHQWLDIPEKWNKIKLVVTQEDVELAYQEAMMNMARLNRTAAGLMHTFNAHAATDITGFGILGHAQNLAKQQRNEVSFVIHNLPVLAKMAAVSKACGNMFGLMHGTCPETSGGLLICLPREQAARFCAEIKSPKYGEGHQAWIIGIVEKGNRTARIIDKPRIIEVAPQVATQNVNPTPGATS", "UniProt Q96BH1": "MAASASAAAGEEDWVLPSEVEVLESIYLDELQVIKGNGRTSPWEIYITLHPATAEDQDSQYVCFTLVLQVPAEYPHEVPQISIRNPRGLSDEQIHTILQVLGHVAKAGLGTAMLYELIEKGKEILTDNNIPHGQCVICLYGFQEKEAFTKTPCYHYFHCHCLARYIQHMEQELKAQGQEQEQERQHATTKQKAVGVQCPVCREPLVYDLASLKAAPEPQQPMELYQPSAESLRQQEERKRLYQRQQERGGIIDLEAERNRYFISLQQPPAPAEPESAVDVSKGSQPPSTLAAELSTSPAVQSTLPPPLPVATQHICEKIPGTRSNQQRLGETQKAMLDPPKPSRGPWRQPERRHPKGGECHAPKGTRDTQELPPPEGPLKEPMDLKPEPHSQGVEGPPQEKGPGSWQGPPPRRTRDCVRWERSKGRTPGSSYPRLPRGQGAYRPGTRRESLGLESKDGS", "UniProt Q9Y230, whole entry": "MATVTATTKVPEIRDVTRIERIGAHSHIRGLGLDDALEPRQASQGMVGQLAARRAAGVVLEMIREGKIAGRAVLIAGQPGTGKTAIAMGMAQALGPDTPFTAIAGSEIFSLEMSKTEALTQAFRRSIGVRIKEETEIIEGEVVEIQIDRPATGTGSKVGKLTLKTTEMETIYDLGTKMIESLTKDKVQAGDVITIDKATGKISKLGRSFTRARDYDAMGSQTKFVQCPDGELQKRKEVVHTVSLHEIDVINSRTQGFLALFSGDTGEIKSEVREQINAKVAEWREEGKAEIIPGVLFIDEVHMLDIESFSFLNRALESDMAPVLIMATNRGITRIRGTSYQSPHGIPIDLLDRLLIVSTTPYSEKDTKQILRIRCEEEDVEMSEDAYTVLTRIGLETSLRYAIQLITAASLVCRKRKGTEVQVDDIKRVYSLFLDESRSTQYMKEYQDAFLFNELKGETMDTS", "UniProt Q8N122, whole entry": "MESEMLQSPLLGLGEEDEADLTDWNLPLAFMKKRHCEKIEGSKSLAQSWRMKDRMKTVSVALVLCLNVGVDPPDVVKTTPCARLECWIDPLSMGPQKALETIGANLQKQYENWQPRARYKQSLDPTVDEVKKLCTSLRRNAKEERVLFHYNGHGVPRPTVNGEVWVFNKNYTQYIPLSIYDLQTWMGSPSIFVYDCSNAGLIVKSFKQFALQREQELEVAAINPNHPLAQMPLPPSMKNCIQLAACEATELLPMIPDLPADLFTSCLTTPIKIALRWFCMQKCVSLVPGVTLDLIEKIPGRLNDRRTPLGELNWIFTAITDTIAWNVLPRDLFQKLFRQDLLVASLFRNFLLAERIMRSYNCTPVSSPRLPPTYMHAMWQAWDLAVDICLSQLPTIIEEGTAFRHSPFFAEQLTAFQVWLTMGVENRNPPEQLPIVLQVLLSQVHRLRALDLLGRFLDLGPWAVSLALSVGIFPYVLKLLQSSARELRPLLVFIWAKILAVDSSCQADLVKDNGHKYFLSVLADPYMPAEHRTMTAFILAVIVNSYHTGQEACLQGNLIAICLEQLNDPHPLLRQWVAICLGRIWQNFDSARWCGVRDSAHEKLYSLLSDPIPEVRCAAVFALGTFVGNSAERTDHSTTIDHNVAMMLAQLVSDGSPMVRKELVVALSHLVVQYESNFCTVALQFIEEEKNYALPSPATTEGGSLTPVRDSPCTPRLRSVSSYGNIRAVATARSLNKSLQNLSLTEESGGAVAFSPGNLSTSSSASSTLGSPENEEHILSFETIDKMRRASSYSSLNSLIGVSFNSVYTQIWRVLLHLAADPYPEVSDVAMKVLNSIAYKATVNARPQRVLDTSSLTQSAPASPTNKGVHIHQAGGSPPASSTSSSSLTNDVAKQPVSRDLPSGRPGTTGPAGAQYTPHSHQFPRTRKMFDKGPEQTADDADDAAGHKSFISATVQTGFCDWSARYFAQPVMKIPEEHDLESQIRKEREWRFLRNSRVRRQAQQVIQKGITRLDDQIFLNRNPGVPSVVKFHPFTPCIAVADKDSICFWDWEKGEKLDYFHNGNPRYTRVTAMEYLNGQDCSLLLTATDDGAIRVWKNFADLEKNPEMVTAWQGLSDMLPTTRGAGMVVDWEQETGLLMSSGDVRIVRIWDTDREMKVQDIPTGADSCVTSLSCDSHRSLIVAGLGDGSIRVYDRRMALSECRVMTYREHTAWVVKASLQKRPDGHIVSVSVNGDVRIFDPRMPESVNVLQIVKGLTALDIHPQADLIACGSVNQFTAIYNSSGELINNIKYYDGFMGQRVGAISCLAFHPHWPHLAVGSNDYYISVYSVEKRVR", "UniProt Q8N5W9": "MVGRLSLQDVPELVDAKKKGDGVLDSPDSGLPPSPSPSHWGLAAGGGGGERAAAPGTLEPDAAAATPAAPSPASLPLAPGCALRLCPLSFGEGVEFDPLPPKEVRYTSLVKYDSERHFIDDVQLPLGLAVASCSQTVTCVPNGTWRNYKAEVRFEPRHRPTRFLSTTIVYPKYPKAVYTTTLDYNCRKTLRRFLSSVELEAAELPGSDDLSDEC", "UniProt Q8TAC1": "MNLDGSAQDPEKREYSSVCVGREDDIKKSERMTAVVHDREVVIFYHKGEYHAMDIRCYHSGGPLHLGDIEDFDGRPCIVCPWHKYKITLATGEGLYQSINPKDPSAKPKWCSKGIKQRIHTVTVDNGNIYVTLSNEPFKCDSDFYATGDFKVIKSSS", "UniProt Q86SQ7": "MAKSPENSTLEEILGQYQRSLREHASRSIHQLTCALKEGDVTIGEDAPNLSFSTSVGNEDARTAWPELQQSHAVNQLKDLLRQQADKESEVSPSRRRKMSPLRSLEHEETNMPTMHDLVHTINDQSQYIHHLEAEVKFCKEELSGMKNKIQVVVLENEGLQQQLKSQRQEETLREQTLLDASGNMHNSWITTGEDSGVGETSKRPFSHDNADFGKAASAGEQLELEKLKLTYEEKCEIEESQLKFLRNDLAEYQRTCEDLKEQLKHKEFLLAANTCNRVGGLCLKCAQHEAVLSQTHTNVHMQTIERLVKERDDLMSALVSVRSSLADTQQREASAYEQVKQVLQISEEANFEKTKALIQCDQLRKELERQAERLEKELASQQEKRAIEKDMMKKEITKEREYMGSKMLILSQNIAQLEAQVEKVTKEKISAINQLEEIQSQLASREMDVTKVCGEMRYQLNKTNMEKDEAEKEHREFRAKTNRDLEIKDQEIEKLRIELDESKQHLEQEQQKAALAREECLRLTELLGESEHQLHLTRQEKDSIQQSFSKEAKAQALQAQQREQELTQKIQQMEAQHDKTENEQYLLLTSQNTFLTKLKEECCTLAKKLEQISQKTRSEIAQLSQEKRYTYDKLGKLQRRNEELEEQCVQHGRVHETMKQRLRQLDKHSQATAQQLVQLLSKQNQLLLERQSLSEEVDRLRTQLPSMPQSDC", "UniProt Q99496": "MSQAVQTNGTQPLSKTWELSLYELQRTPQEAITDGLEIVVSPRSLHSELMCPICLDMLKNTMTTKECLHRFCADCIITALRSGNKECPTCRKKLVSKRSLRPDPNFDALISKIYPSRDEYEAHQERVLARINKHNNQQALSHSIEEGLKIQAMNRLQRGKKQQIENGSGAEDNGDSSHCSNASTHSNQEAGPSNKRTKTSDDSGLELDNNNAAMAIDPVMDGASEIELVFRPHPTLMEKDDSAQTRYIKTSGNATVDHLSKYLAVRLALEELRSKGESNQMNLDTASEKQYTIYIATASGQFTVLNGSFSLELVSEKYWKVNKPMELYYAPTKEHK"},
  "source": "the supplement of paper PMC7666118",
  "note": "The list shows a part of the results.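 How the source made its calls: active = dose-dependent thermal stabilisation significant by F-test of dose-response against flat model at 10% FDR; inactive = not significant.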",
  "data": [
    {"compound": "Nc1nc2c(ncn2[C@@H]2O[C@H](COP(=O)(O)OP(=O)(O)OP(=O)(O)O)[C@@H](O)[C@H]2O)c(=O)[nH]1", "experiment": "dose-dependent thermal stabilisation call (2D-TPP, DLPTP, 10% FDR) (binary (1 = stabilised)); higher = stabilised by the compound", "conditions": "system: Jurkat gel-filtered lysate; concentration range 1-500 µM", "values": [
      {"target": "SH2D1A (UniProt O60880)", "dose-dependent thermal stabilisation call": "inactive: 0"},
      {"target": "RIC1 (UniProt Q4ADV7)", "dose-dependent thermal stabilisation call": "inactive: 0"},
      {"target": "RNPS1 (UniProt Q15287)", "dose-dependent thermal stabilisation call": "active: 1"},
      {"target": "SFN (UniProt P31947)", "dose-dependent thermal stabilisation call": "inactive: 0"},
      {"target": "SAP18 (UniProt O00422)", "dose-dependent thermal stabilisation call": "active: 1"},
      {"target": "RPS3A (UniProt P61247)", "dose-dependent thermal stabilisation call": "inactive: 0"},
      {"target": "SDHA (UniProt P31040)", "dose-dependent thermal stabilisation call": "inactive: 0"},
      {"target": "RECQL (UniProt P46063)", "dose-dependent thermal stabilisation call": "inactive: 0"},
      {"target": "RPL23A (UniProt P62750)", "dose-dependent thermal stabilisation call": "inactive: 0"},
      {"target": "RFX5 (UniProt P48382)", "dose-dependent thermal stabilisation call": "inactive: 0"},
      {"target": "RRAGB (UniProt Q5VZM2)", "dose-dependent thermal stabilisation call": "active: 1"},
      {"target": "RPA3 (UniProt P35244)", "dose-dependent thermal stabilisation call": "inactive: 0"},
      {"target": "SETMAR (UniProt Q53H47)", "dose-dependent thermal stabilisation call": "inactive: 0"},
      {"target": "SEPHS1 (UniProt P49903)", "dose-dependent thermal stabilisation call": "inactive: 0"},
      {"target": "RGS14 (UniProt O43566)", "dose-dependent thermal stabilisation call": "inactive: 0"},
      {"target": "RGS10 (UniProt O43665)", "dose-dependent thermal stabilisation call": "inactive: 0"},
      {"target": "SEC24B (UniProt O95487)", "dose-dependent thermal stabilisation call": "inactive: 0"},
      {"target": "RNF25 (UniProt Q96BH1)", "dose-dependent thermal stabilisation call": "inactive: 0"},
      {"target": "SCYL1 (UniProt Q96KG9)", "dose-dependent thermal stabilisation call": "inactive: 0"},
      {"target": "RUVBL2 (UniProt Q9Y230)", "dose-dependent thermal stabilisation call": "inactive: 0"},
      {"target": "RIPK1 (UniProt Q13546)", "dose-dependent thermal stabilisation call": "inactive: 0"},
      {"target": "RSBN1L (UniProt Q6PCB5)", "dose-dependent thermal stabilisation call": "inactive: 0"},
      {"target": "RPTOR (UniProt Q8N122)", "dose-dependent thermal stabilisation call": "inactive: 0"},
      {"target": "RFLNB (UniProt Q8N5W9)", "dose-dependent thermal stabilisation call": "inactive: 0"},
      {"target": "RFESD (UniProt Q8TAC1)", "dose-dependent thermal stabilisation call": "inactive: 0"},
      {"target": "RNF7 (UniProt Q9UBF6)", "dose-dependent thermal stabilisation call": "inactive: 0"},
      {"target": "RUFY1 (UniProt Q96T51)", "dose-dependent thermal stabilisation call": "inactive: 0"},
      {"target": "RRM1 (UniProt P23921)", "dose-dependent thermal stabilisation call": "inactive: 0"},
      {"target": "RDX (UniProt P35241)", "dose-dependent thermal stabilisation call": "inactive: 0"},
      {"target": "SETD2 (UniProt Q9BYW2)", "dose-dependent thermal stabilisation call": "inactive: 0"},
      {"target": "RIOK1 (UniProt Q9BRS2)", "dose-dependent thermal stabilisation call": "active: 1"},
      {"target": "SDCCAG8 (UniProt Q86SQ7)", "dose-dependent thermal stabilisation call": "inactive: 0"},
      {"target": "RTN4 (UniProt Q9NQC3)", "dose-dependent thermal stabilisation call": "inactive: 0"},
      {"target": "RIF1 (UniProt Q5UIP0)", "dose-dependent thermal stabilisation call": "inactive: 0"},
      {"target": "RNF2 (UniProt Q99496)", "dose-dependent thermal stabilisation call": "inactive: 0"}
    ]}
  ]
}
